Measured values from patent publication US8410056B2, “Pro-oxidant anti-cancer compounds” (priority 2006, dated 2013).
For at least one compound, name, drawing or mass did not settle the structure.

Tested on: mesothelioma
Test: Clinical study, patient with mesothelioma
Type: in vivo
Settings: same patient
Protocol: α-TOS was used to treat mesothelioma in a human cancer patient. […] The blood plasma levels were monitored and levels of α-TOS in the plasma attained 50 μM over prolonged periods during continual application. This is more than sufficient to kill the cancer cells based on in vitro analysis.
The patient was originally receiving high dose opiate medications, neuropathic pain medications, home oxygen, and was predicted to have a life expectancy of 6-8 weeks. After treatment with α-TOS, the patient no longer required analgesia or oxygen.
In December 2005, the patient started receiving transdermal delivery of α-TOS, prepared in a base cream and solubilised with dimethyl sulfoxide (DMSO).
In April 2007, therapy with α-TOS was commenced using a modified formulation mixed in a lipodermal cream (see below). […] In addition, a palpable lesion was visible growing out between the ribs and the right anterior chest wall. The patient was in very poor condition with a low ECOG- no CT scan could be performed at the time of commencing the α-TOS treatment because the patient was too moribund.
α-TOS formulation: 500 gms of Lipoderm cream plus 60 gms α-TOS compounded by the hospital pharmacy. About 30 gms of compounded mix was administered every few days, and the upper body was wrapped in plastic film (“saran wrap”) to improve absorption.

Oc1ccc(C2=Cc3ccc(O)cc3OC2)cc1 [phenoxodiol, reference compound]
response to other therapies (medical history): remained stable until March 2005
